Data as given in paper PMC12153781.

Sequences of proteins named here, by UniProt entry; tags and fusion partners are left off.
UniProt P06748: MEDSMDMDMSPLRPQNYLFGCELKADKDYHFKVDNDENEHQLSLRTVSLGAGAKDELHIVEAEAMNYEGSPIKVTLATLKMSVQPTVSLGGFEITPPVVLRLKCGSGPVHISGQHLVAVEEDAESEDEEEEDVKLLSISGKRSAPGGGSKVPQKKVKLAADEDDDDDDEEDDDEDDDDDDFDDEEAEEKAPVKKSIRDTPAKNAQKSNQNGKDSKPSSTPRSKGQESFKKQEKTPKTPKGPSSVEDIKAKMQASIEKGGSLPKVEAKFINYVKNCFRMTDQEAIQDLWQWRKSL
UniProt P16403: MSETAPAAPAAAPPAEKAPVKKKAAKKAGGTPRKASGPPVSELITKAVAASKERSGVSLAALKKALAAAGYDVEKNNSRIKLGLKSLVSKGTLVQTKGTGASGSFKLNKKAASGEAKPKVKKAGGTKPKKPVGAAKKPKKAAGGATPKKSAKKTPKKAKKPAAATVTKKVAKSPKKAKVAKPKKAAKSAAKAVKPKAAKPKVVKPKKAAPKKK

Target: T1, Flag-tagged SLFN11 (human) (UniProt Q7Z7L1)
T1 sequence: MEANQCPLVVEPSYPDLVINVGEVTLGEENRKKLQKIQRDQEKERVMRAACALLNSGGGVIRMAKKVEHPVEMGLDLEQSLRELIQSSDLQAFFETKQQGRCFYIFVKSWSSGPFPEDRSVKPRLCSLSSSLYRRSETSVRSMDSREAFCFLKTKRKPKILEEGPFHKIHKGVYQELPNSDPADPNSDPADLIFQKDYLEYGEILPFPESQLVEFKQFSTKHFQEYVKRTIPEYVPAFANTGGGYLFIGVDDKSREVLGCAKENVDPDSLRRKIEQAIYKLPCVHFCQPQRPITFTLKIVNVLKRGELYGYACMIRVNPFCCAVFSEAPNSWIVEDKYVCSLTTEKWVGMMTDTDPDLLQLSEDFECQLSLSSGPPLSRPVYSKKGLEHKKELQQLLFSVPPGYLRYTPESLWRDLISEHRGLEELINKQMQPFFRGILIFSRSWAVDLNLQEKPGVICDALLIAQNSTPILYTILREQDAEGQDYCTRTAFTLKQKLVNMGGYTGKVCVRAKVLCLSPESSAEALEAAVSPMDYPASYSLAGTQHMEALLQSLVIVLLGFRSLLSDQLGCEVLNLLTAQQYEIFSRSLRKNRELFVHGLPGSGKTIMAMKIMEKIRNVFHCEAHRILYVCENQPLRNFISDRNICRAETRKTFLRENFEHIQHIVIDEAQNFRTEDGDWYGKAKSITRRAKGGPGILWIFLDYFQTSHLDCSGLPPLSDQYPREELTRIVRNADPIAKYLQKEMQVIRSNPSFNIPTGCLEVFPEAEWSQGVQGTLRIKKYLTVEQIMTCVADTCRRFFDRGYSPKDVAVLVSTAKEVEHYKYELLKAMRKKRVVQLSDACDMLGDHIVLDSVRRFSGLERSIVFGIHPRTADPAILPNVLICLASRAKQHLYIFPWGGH
Assay: affinity purification with mass spectrometry; cells co-transfected with CMV-L1-neoRT+ and SLFN11 or control plasmid; NP-40 lysis buffer; anti-Flag immunoprecipitation at 4 °C overnight, protein A/G agarose, elution with FLAG peptide (0.1 mg/mL), LC-MS/MS

Substance	binding
NPM1 (from UniProt P06748 1-294)	binds
linker histone H1.2 (from UniProt P16403 1-213)	binds

No constants are given. Whether binding was seen depends on the method and setting. In cells and extracts the contact can be indirect. Here binding means that the protein was enriched with, or labelled near, the bait; the list need not be complete. Sequences can lack the tags named with a protein.
